Data on four molecules can be found in publication PMC6721949.

By UniProt entry, the sequences of proteins in these tests, tags left out. Where a name states a change or a piece, a line headed by the entry shows the natural chain unless it says otherwise. Chains listed by the source or under a name are the forms on record and can include a tag or linker.
BKCa channels expressed in HEK293 cells (Q12791, form named): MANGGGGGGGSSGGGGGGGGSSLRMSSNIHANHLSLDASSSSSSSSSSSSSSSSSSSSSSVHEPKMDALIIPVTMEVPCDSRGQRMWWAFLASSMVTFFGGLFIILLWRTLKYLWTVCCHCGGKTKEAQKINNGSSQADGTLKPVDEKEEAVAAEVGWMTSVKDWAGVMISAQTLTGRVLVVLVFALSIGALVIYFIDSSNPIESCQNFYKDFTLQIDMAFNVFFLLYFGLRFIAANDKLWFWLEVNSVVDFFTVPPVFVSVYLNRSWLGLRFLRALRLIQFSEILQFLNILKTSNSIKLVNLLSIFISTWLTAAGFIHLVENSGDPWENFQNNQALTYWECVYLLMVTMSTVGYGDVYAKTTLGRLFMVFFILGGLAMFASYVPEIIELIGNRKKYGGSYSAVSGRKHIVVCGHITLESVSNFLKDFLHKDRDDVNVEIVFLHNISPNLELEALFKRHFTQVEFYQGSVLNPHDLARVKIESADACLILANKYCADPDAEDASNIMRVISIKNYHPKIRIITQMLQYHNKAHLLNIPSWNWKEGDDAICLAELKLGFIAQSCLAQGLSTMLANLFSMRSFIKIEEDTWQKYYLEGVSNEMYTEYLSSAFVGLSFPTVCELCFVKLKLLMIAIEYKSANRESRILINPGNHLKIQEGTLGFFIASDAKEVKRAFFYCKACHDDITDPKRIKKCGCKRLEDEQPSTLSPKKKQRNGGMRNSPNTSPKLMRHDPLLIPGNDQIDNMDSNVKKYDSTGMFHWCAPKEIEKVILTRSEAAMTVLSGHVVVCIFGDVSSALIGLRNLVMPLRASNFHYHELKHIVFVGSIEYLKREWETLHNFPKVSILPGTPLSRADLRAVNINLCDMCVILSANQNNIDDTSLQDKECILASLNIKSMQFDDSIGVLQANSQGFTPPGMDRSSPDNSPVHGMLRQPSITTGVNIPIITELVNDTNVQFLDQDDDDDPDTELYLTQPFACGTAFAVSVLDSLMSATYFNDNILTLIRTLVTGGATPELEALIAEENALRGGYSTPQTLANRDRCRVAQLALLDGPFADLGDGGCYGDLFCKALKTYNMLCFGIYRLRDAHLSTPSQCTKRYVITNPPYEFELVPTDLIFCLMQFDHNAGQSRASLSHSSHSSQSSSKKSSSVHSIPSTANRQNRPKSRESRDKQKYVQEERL
UniProt Q62976: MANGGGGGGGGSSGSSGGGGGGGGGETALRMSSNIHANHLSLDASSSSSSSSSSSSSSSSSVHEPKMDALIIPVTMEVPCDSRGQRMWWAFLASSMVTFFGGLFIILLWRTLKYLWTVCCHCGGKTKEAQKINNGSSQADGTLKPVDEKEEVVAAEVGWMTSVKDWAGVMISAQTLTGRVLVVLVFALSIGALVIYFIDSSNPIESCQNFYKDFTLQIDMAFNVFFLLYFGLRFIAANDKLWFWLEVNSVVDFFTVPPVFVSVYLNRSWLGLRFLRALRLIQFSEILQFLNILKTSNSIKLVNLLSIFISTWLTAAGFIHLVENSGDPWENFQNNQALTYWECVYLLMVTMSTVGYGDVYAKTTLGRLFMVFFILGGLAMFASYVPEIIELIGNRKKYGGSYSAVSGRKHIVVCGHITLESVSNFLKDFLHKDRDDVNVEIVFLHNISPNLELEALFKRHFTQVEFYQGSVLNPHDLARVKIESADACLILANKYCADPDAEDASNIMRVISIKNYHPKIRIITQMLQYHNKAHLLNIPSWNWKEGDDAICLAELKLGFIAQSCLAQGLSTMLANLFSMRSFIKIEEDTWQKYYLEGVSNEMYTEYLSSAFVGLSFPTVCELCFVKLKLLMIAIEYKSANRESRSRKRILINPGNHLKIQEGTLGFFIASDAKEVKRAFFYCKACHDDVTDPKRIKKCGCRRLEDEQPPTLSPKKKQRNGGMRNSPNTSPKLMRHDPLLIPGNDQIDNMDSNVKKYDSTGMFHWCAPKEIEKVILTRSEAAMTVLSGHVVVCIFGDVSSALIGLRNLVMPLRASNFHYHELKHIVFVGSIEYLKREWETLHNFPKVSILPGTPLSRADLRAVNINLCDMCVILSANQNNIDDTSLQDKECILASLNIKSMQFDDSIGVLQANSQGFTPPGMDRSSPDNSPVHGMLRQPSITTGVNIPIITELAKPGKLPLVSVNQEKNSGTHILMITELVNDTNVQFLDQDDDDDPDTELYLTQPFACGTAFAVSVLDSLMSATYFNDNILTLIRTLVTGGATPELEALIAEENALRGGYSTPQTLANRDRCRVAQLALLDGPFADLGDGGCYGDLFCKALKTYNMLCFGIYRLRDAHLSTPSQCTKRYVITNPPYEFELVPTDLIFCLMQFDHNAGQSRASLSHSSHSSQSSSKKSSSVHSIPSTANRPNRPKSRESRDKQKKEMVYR

Assay [1] concerns the target BKα-VC (VC-tagged α subunit of BKCa channels) (UniProt Q12791). Put plainly: split reporter; BiFC with Venus halves VN173 and VC155; constructs co-expressed in HEK293 cells, confocal microscopy; Venus/Hoechst ratio for Fig. 2D.
In assay [2] the target is VC-Cav1 (Cav1 with the C-terminal half of Venus on its N terminus) (UniProt Q03135). The assay is described as above.
The target in assay [3] is BKCa channels expressed in HEK293 cells (UniProt Q12791). The experiment in a line: co-IP; HEK293 cells expressing GFP-JP2 and BKCa channels (Fig. S2B); antibody used for precipitation not told in the text shown.
Assay [4] deals with large-conductance Ca2+-activated K+ (BKCa) channel, endogenous in rat mesenteric artery (rat (endogenous in mesenteric artery)) (UniProt Q62976). Put plainly: co-IP; rat mesenteric artery (Fig. S2A); antibody used for precipitation not told in the text shown.
Assay [5] concerns the target T1, caveolin-1 (Cav1), endogenous in rat mesenteric artery (rat (endogenous in mesenteric artery)) (UniProt P41350).
T1 sequence: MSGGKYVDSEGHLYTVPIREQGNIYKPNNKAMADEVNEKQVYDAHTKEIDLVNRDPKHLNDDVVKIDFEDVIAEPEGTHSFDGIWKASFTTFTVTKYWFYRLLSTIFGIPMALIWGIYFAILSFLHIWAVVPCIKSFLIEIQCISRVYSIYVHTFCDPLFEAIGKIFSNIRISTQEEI
Put plainly: co-IP; extracts of rat mesenteric artery; anti-Cav1 antibody (10 μg) immobilised on AminoLink Plus Coupling Resin (Pierce Co-IP kit); immunoblot for JP2.

Results are given in words; binding and its absence hold for the method and conditions named. Binding seen in cells or lysates may run through a third protein. Some binding calls cover weakened binding; strength is not graded here. For part of these data: Sequences can lack the tags named with a protein.

B1: VN-JP2 (full-length JP2 with the N-terminal half of Venus on its N terminus) (protein, UniProt Q9BR39-1 1-696)
chain: MSGGRFDFDDGGAYCGGWEGGKAHGHGLCTGPKGQGEYSGSWNFGFEVAGVYTWPSGNTFEGYWSQGKRHGLGIETKGRWLYKGEWTHGFKGRYGIRQSSSSGAKYEGTWNNGLQDGYGTETYADGGTYQGQFTNGMRHGYGVRQSVPYGMAVVVRSPLRTSLSSLRSEHSNGTVAPDSPASPASDGPALPSPAIPRGGFALSLLANAEAAARAPKGGGLFQRGALLGKLRRAESRTSVGSQRSRVSFLKSDLSSGASDAASTASLGEAAEGADEAAPFEADIDATTTETYMGEWKNDKRSGFGVSERSSGLRYEGEWLDNLRHGYGCTTLPDGHREEGKYRHNVLVKDTKRRMLQLKSNKVRQKVEHSVEGAQRAAAIARQKAEIAASRTSHAKAKAEAAEQAALAANQESNIARTLARELAPDFYQPGPEYQKRRLLQEILENSESLLEPPDRGAGAAGLPQPPRESPQLHERETPRPEGGSPSPAGTPPQPKRPRPGVSKDGLLSPGAWNGEPSGEGSRSVTPSEGAGRRSPARPATERMAIEALQAPPAPSREPEVALYQGYHSYAVRTTPPEPPPFEDQPEPEVSGSESAPSSPATAPLQAPTLRGPEPARETPAKLEPKPIIPKAEPRAKARKTEARGLTKAGAKKKARKEAALAAEAEVEVEEVPNTILICMVILLNIGLAILFVHLLT
Take B1: the binding result in assay [1] and in assay [2] was “binds” in each case.

B2: GFP-JP2 (protein, UniProt Q9BR39-1 1-696)
chain: MSGGRFDFDDGGAYCGGWEGGKAHGHGLCTGPKGQGEYSGSWNFGFEVAGVYTWPSGNTFEGYWSQGKRHGLGIETKGRWLYKGEWTHGFKGRYGIRQSSSSGAKYEGTWNNGLQDGYGTETYADGGTYQGQFTNGMRHGYGVRQSVPYGMAVVVRSPLRTSLSSLRSEHSNGTVAPDSPASPASDGPALPSPAIPRGGFALSLLANAEAAARAPKGGGLFQRGALLGKLRRAESRTSVGSQRSRVSFLKSDLSSGASDAASTASLGEAAEGADEAAPFEADIDATTTETYMGEWKNDKRSGFGVSERSSGLRYEGEWLDNLRHGYGCTTLPDGHREEGKYRHNVLVKDTKRRMLQLKSNKVRQKVEHSVEGAQRAAAIARQKAEIAASRTSHAKAKAEAAEQAALAANQESNIARTLARELAPDFYQPGPEYQKRRLLQEILENSESLLEPPDRGAGAAGLPQPPRESPQLHERETPRPEGGSPSPAGTPPQPKRPRPGVSKDGLLSPGAWNGEPSGEGSRSVTPSEGAGRRSPARPATERMAIEALQAPPAPSREPEVALYQGYHSYAVRTTPPEPPPFEDQPEPEVSGSESAPSSPATAPLQAPTLRGPEPARETPAKLEPKPIIPKAEPRAKARKTEARGLTKAGAKKKARKEAALAAEAEVEVEEVPNTILICMVILLNIGLAILFVHLLT
As to B2, the binding result in assay [3] was “binds”.

B3: junctophilin-2 (JP2), endogenous in rat mesenteric artery (protein, UniProt Q2PS20 1-692)
chain: MSGGRFDFDDGGAYCGGWEGGKAHGHGLCTGPKGQGEYSGSWNFGFEVAGVYTWPSGNTFEGYWSQGKRHGLGIETKGRWLYKGEWTHGFKGRYGIRQSTNSGAKYEGTWNNGLQDGYGTETYADGGTYQGQFTNGMRHGYGVRQSVPYGMAVVVRSPLRTSLSSLRSEHSNGTVAPDSPAADGPTLPLPPVPRGGFALSLLATAEAARPPGLFTRGALLGRLRRSESRTSLGSQRSRLSFLKSELSSGASDAASTGSLAEGAEGPDDAAAPFDADIDATTTETYMGEWKNDKRSGFGVSERSSGLRYEGEWLDNLRHGYGRTTLPDGHREEGKYRHNVLVKGTKRRVLPLKSNKVRQKVEHGVEGAQRAAAIARQKAEIAASRTSHAKAKAEAAEQAALAANQESNIARTLAKELAPDFYQPGPEYQKRRLLQEILENSESLLEPRERGPGTGLPERPRESPQLHERETPQPEGGPPSPAGTPPQPKRPRPGSSKDGLLSPGAWNGEPGGEGSRPATPSDGAGRRSPARPASEHMAIEALQPPPAPSREPEVALYRGYHSYAVRTGPPEPPPLEDEPEPEPEVPRSDSEPPSPVSATVQEEESPAPRSRVPAKPATLEPKPIVPKAEPKAKARKTEARGLSKAGAKKKGRKEVAQEAEAEVEVEEVPNTVLICMVILLNIGLAILFVHLLT
As for B3, the binding result in assay [4] and in assay [5] was “binds” in each case.

B4: JP2(276-674aa)-VN (domain or fragment, UniProt Q9BR39-1 276-674)
chain: AAPFEADIDATTTETYMGEWKNDKRSGFGVSERSSGLRYEGEWLDNLRHGYGCTTLPDGHREEGKYRHNVLVKDTKRRMLQLKSNKVRQKVEHSVEGAQRAAAIARQKAEIAASRTSHAKAKAEAAEQAALAANQESNIARTLARELAPDFYQPGPEYQKRRLLQEILENSESLLEPPDRGAGAAGLPQPPRESPQLHERETPRPEGGSPSPAGTPPQPKRPRPGVSKDGLLSPGAWNGEPSGEGSRSVTPSEGAGRRSPARPATERMAIEALQAPPAPSREPEVALYQGYHSYAVRTTPPEPPPFEDQPEPEVSGSESAPSSPATAPLQAPTLRGPEPARETPAKLEPKPIIPKAEPRAKARKTEARGLTKAGAKKKARKEAALAAEAEVEVEEVPNT
In the case of B4, in assay [2], the binding result was “binds”.
